PubChem BioAssay AID1224830, NIAID, 2016
Purpose: 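Host factors that control LPS-induced TNF expression in human macrophages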 (primary screen). Cell system: human THP-1 monocytic leukaemia cells, TNF dual-luciferase reporter clone, PMA-differentiated to macrophage-like cells. Reagents: siRNA pool against human genes, 50 nM. Duration: LPS for 4 h, given about 3 days after siRNA transfection. Treatment: bacterial LPS (TLR4 ligand), 10 ng/ml. Measured: 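TNF firefly reporter luminescence divided by renilla, normalised to the plate median, then turned into a robust z-score for each replicate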. Direction: TNF reporter robust z-score: higher = stronger TNF reporter response to LPS. Call rule: 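Each well counts as active if its z-score is over 2.8 or under -1.5; controls are left without a call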.
In all, the deposit lists about 18,000 reagents; this is an unselected part. About 2,900 of all reagents (16%) were called active. 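Calls are made per well; low scores hint the gene aids the LPS response, high scores that it dampens it.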 A number with no mark means an inactive call. Repeated entries: four replicate wells of each siRNA pool.

YEATS2 — TNF reporter robust z-score: -0.61
YEATS2 — TNF reporter robust z-score: 0.4
YEATS2 — TNF reporter robust z-score: -0.23
YEATS2 — TNF reporter robust z-score: -0.17
LATS1 — TNF reporter robust z-score: -1.68 (active)
LATS1 — TNF reporter robust z-score: -0.43
LATS1 — TNF reporter robust z-score: 0.23
LATS1 — TNF reporter robust z-score: -0.65
GYPA — TNF reporter robust z-score: -0.42
GYPA — TNF reporter robust z-score: -0.02
GYPA — TNF reporter robust z-score: -1.24
GYPA — TNF reporter robust z-score: -0.44
GCA — TNF reporter robust z-score: -0.18
GCA — TNF reporter robust z-score: 0.09
GCA — TNF reporter robust z-score: 0.41
GCA — TNF reporter robust z-score: 1
FXYD7 — TNF reporter robust z-score: -1.33
FXYD7 — TNF reporter robust z-score: -1.14
FXYD7 — TNF reporter robust z-score: -1.37
FXYD7 — TNF reporter robust z-score: -1.35
GLIS1 — TNF reporter robust z-score: 1.46
GLIS1 — TNF reporter robust z-score: 1.03
GLIS1 — TNF reporter robust z-score: -0.8
GLIS1 — TNF reporter robust z-score: 0.12
ZNF667 — TNF reporter robust z-score: -0.43
ZNF667 — TNF reporter robust z-score: -0.5
ZNF667 — TNF reporter robust z-score: -0.77
ZNF667 — TNF reporter robust z-score: 0.02
XPC — TNF reporter robust z-score: 1.47
XPC — TNF reporter robust z-score: 1.34
XPC — TNF reporter robust z-score: 0.08
XPC — TNF reporter robust z-score: 1.4
